From publication PMC11589570, “Critical assessment of LC3/GABARAP ligands used for degrader development and ligandability of LC3/GABARAP binding pockets” (Nature Communications, 2024)
Several values for one entry are separate records, joined by “and”; a condition that tells them apart may be missing. Identical values can stand only once. This continues a long series; more values of the same kind are listed elsewhere.

Tested on: RPE1 cells
Experiment: Cell growth assay (IncuCyte confluence over 72 h)
Type: cell-based
Outline: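 Phase confluence (% area covered by cells) imaged every 2 h for 72 h after compound addition; cells in DMEM/10% FBS, seeded 24 h before treatment. Controls were 0.1% DMSO, 250 nM Torin1 and 200 ng/mL Bafilomycin (final). Each point averages three wells.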

## O=C1Nc2ccc(Br)cc2C1=Cc1cc(O)c(O)c(Br)c1 [compound 1]
3 uM, 2 h, listed as AN1
  RPE1 cell growth: 29 and 27 and 22
3 uM, 4 h, listed as AN1
  RPE1 cell growth: 34 and 28 and 24
3 uM, 6 h, listed as AN1
  RPE1 cell growth: 37 and 28 and 26
3 uM, 8 h, listed as AN1
  RPE1 cell growth: 40 and 31 and 28
3 uM, 22 h, listed as AN1
  RPE1 cell growth: 55 and 46 and 38
3 uM, 24 h, listed as AN1
  RPE1 cell growth: 58 and 47 and 40
3 uM, 26 h, listed as AN1
  RPE1 cell growth: 59 and 48 and 43
3 uM, 28 h, listed as AN1
  RPE1 cell growth: 63 and 48 and 42
3 uM, 30 h, listed as AN1
  RPE1 cell growth: 66 and 49 and 45
3 uM, 32 h, listed as AN1
  RPE1 cell growth: 68 and 50 and 49
3 uM, 34 h, listed as AN1
  RPE1 cell growth: 69 and 50 and 52
3 uM, 36 h, listed as AN1
  RPE1 cell growth: 73 and 53 and 54
3 uM, 38 h, listed as AN1
  RPE1 cell growth: 77 and 54 and 56
3 uM, 40 h, listed as AN1
  RPE1 cell growth: 81 and 56 and 59
3 uM, 42 h, listed as AN1
  RPE1 cell growth: 84 and 57 and 63
3 uM, 44 h, listed as AN1
  RPE1 cell growth: 87 and 62 and 64
3 uM, 46 h, listed as AN1
  RPE1 cell growth: 89 and 64 and 66
3 uM, 48 h, listed as AN1
  RPE1 cell growth: 90 and 69 and 71
3 uM, 50 h, listed as AN1
  RPE1 cell growth: 93 and 71 and 74
3 uM, 52 h, listed as AN1
  RPE1 cell growth: 94 and 75 and 77
3 uM, 54 h, listed as AN1
  RPE1 cell growth: 96 and 78 and 81
3 uM, 56 h, listed as AN1
  RPE1 cell growth: 97 and 81 and 85
3 uM, 58 h, listed as AN1
  RPE1 cell growth: 98 and 85 and 88
3 uM, 60 h, listed as AN1
  RPE1 cell growth: 98 and 88 and 91
3 uM, 62 h, listed as AN1
  RPE1 cell growth: 99 and 90 and 92
3 uM, 64 h, listed as AN1
  RPE1 cell growth: 99 and 92 and 95
3 uM, 66 h, listed as AN1
  RPE1 cell growth: 99 and 95 and 96
3 uM, 68 h, listed as AN1
  RPE1 cell growth: 99 and 95 and 98
3 uM, 70 h, listed as AN1
  RPE1 cell growth: 99 and 97
3 uM, 72 h, listed as AN1
  RPE1 cell growth: 100 and 97 and 99
3 uM, time 20 h, listed as AN1
  RPE1 cell growth: 48 and 33 and 44
3 uM, time 22 h, listed as AN1
  RPE1 cell growth: 54 and 36 and 46
3 uM, time 24 h, listed as AN1
  RPE1 cell growth: 61 and 39 and 48
3 uM, time 26 h, listed as AN1
  RPE1 cell growth: 64 and 40 and 51
3 uM, time 28 h, listed as AN1
  RPE1 cell growth: 68 and 44 and 54
3 uM, time 30 h, listed as AN1
  RPE1 cell growth: 73 and 49 and 57
3 uM, time 32 h, listed as AN1
  RPE1 cell growth: 77 and 53 and 63
3 uM, time 34 h, listed as AN1
  RPE1 cell growth: 79 and 56 and 67
3 uM, time 36 h, listed as AN1
  RPE1 cell growth: 83 and 59 and 70
3 uM, time 38 h, listed as AN1
  RPE1 cell growth: 87 and 65 and 74
3 uM, time 40 h, listed as AN1
  RPE1 cell growth: 91 and 68 and 78
3 uM, time 42 h, listed as AN1
  RPE1 cell growth: 93 and 71 and 82
3 uM, time 44 h, listed as AN1
  RPE1 cell growth: 96 and 76 and 87
3 uM, time 46 h, listed as AN1
  RPE1 cell growth: 97 and 81 and 90
3 uM, time 48 h, listed as AN1
  RPE1 cell growth: 99 and 86 and 93
3 uM, time 50 h, listed as AN1
  RPE1 cell growth: 99 and 89 and 95
3 uM, time 52 h, listed as AN1
  RPE1 cell growth: 99 and 93 and 97
3 uM, time 54 h, listed as AN1
  RPE1 cell growth: 100 and 96 and 98
3 uM, time 56 h, listed as AN1
  RPE1 cell growth: 100 and 98 and 99
3 uM, time 58 h, listed as AN1
  RPE1 cell growth: 100 and 99
3 uM, time 60 h
  RPE1 cell growth: 100
3 uM, time 62 h
  RPE1 cell growth: 100
3 uM, time 64 h
  RPE1 cell growth: 100
3 uM, time 66 h
  RPE1 cell growth: 100
3 uM, time 68 h
  RPE1 cell growth: 100
3 uM, time 70 h
  RPE1 cell growth: 100
3 uM, time 72 h
  RPE1 cell growth: 100
5 uM, 0 h, listed as AN1
  RPE1 cell growth: 28 and 25 and 22
5 uM, 2 h, listed as AN1
  RPE1 cell growth: 34 and 28 and 26
5 uM, 4 h, listed as AN1
  RPE1 cell growth: 38 and 28 and 29
5 uM, 6 h, listed as AN1
  RPE1 cell growth: 41 and 30 and 31
5 uM, 8 h, listed as AN1
  RPE1 cell growth: 45 and 33 and 32
5 uM, 22 h, listed as AN1
  RPE1 cell growth: 58 and 48 and 49
5 uM, 24 h, listed as AN1
  RPE1 cell growth: 61 and 48 and 50
5 uM, 26 h, listed as AN1
  RPE1 cell growth: 63 and 49 and 51
5 uM, 28 h, listed as AN1
  RPE1 cell growth: 65 and 52 and 51
5 uM, 30 h, listed as AN1
  RPE1 cell growth: 68 and 53 and 54
5 uM, 32 h, listed as AN1
  RPE1 cell growth: 69 and 54 and 55
5 uM, 34 h, listed as AN1
  RPE1 cell growth: 72 and 53 and 56
5 uM, 36 h, listed as AN1
  RPE1 cell growth: 73 and 55 and 57
5 uM, 38 h, listed as AN1
  RPE1 cell growth: 75 and 56 and 57
5 uM, 40 h, listed as AN1
  RPE1 cell growth: 78 and 58 and 59
5 uM, 42 h, listed as AN1
  RPE1 cell growth: 79 and 57 and 60
5 uM, 44 h, listed as AN1
  RPE1 cell growth: 81 and 57 and 60
5 uM, 46 h, listed as AN1
  RPE1 cell growth: 83 and 58 and 62
5 uM, 48 h, listed as AN1
  RPE1 cell growth: 85 and 58 and 63
5 uM, 50 h, listed as AN1
  RPE1 cell growth: 87 and 57 and 63
5 uM, 52 h, listed as AN1
  RPE1 cell growth: 88 and 60 and 65
5 uM, 54 h, listed as AN1
  RPE1 cell growth: 88 and 59 and 68
5 uM, 56 h, listed as AN1
  RPE1 cell growth: 90 and 59 and 68
5 uM, 58 h, listed as AN1
  RPE1 cell growth: 91 and 58 and 69
5 uM, 60 h, listed as AN1
  RPE1 cell growth: 92 and 61 and 72
5 uM, 62 h, listed as AN1
  RPE1 cell growth: 92 and 59 and 73
5 uM, 64 h, listed as AN1
  RPE1 cell growth: 93 and 60 and 78
5 uM, 66 h, listed as AN1
  RPE1 cell growth: 93 and 60 and 79
5 uM, 68 h, listed as AN1
  RPE1 cell growth: 94 and 59 and 82
